Data from article PMC8201479, “Trisubstituted Pyrrolinones as Small-Molecule Inhibitors Disrupting the Protein–RNA Interaction of LIN28 and Let-7” (ACS Medicinal Chemistry Letters, 2021).

Target: T1, LIN28A (16-187), untagged (human) (UniProt Q9H9Z2)
T1 sequence (looked up): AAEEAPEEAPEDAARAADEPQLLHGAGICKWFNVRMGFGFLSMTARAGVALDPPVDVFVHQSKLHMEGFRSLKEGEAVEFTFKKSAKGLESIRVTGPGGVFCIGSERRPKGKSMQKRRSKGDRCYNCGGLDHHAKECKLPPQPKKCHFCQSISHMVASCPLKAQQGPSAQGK
Experiment: EMSA
Conditions: 10 nM protein, 5 nM RNA, 50 uM ZnCl2; EMSA: 50 mM Tris pH 7.5, 100 mM NaCl, 10 mM beta-ME, 50 uM ZnCl2, 2% DMSO, 0.01% Tween 20, 12% glycerol, 2 h, room temperature; recombinant protein; residues 16-187; label: 3' Cy3

GGGGUAGUGAUUUUACCCUGUUUAGGAGAU [preE-let-7f-1-Cy3]
binding result: binds

Construct, isoform or probe ends are uncertain for at least one entry. At least one verdict was read from the data and is not stated in words by the source. Tags and fusion partners may be left off the protein sequences shown.
